The subject of this test is BDF1 mice, intracerebral L1210 leukemia, survival T/C. As to the kind of experiment: NCI In Vivo Anticancer Drug Screen. Data for tumor model L1210 Leukemia (intracerebral) in B6D2F1 (BDF1) mice. The conditions noted are these: T/C endpoint: mean survival time, higher T/C = longer survival. The protocol: The antitumor activity of compounds was measured in mice bearing transplantable tumors. Survival or tumor size were measured and the results are expressed as the measurement made in the treated group (T) divided by the measurement made in the vehicle treated control group (C). The tumor model used in this assay is L1210 Leukemia (intracerebral) in B6D2F1 (BDF1) mice

The list is a part of this screen's results and no random one: it gathers tests that were run many times, whatever their T/C, doses with no T/C, and many T/C values between a quarter and a half above the control. Other doses and runs of a compound stand elsewhere. T/C: endpoint of the treated group in % of that of the vehicle group. Some entries give survivors of the animals treated and no T/C: the source holds a T/C of zero for them, seemingly a mark for toxic or unscored doses. Some survivor counts are full or nearly so, which does not show that the dose was tolerated: the source hardly ever lists a survival T/C far under the control, and the zero likely stands for such cases as well. Survivors were counted at the toxicity check, usually on the fifth day, unless a day is given; later deaths do not show. Schedule codes are those of the source, read here as Q, the interval in days (D) or hours (H), X, the number of doses. For survival time, the PubChem record calls one and a half times the control and up active, and a quarter to a half above the control has no call in these data; cut-offs in other NCI protocols can differ. Some entries hold several experiments; their values stand side by side, smallest first.

This note sets out measurements from PubChem BioAssay AID252 (DTP/NCI, 2004).

Turning to `O=NN(CCCl)C(=O)NC1CCC(NC(=O)N(CCCl)N=O)CC1` (stereo not given), the T/C is, setting by setting: (dose: 23.0 mg/kg/injection, schedule: Q01DX001 (ip), vehicle: other) 136 and 139 % of control; (dose: 38.0 mg/kg/injection, schedule: Q01DX001 (oral), vehicle: other) 145 % of control; (dose: 63.0 mg/kg/injection, schedule: Q01DX001 (ip), vehicle: carboxymethylcellulose (CMC)) 140 % of control; (dose: 84.0 mg/kg/injection, schedule: Q01DX001 (oral), vehicle: other) 131 % of control; (dose: 171.0 mg/kg/injection, schedule: Q01DX001 (oral), vehicle: other) 141 % of control. Besides, the survivor count (dose: 383.0 mg/kg/injection, schedule: Q01DX001 (ip), vehicle: other) is 10 of 10.

As to `CC[n+]1ccc(Nc2ccc(NC(=O)c3ccc(Nc4cc[n+](CC)c5ccc(N)cc45)cc3)cc2)cc1`, the survivor count (dose: 16.0 mg/kg/injection, schedule: Q01DX009 (ip), vehicle: water) was 1 of 10.

For the compound `COC1=C(N2CC2)C(=O)C(OC)=C(N2CC2)C1=O`, the T/C (dose: 2.0 mg/kg/injection, schedule: Q01DX009 (ip), vehicle: saline) was 133 % of control. For the setting “dose: 4.0 mg/kg/injection, schedule: Q01DX009 (ip), vehicle: saline”, the survivor count is recorded as 5 of 6.

Turning to `CCCOC1=C(N2CC2)C(=O)C(OCCC)=C(N2CC2)C1=O`, the T/C reads like this: (dose: 8.0 mg/kg/injection, schedule: Q01DX005 (ip), vehicle: saline) 125 % of control; (dose: 8.0 mg/kg/injection, schedule: Q01DX009 (ip), vehicle: saline) 135 % of control. For the same compound, the survivor count (dose: 16.0 mg/kg/injection, schedule: Q01DX005 (ip), vehicle: saline) is listed as 6 of 6.

Turning to `O=NN(CCCl)C(=O)NC1C=CCCC1` (stereo not given), the T/C (dose: 40.0 mg/kg/injection, schedule: Q01DX001 (ip), vehicle: other) was 126 % of control.

As to `CN(N=O)C(=O)Nc1ccc(NC(=O)N(C)N=O)cc1`, the survivor count reads like this: (dose: 360.0 mg/kg/injection, schedule: Q01DX001 (ip), vehicle: carboxymethylcellulose (CMC)) 5 of 10; (dose: 720.0 mg/kg/injection, schedule: Q01DX001 (ip), vehicle: carboxymethylcellulose (CMC)) 0 of 10.
